According to the supplement of paper PMC8728848:
The other results are listed elsewhere or left out.

What was measured:
Assay in all cases: glycan array binding signal (z-score within array); higher = stronger binding
Conditions in all cases: glycan notation: IUPAC condensed, linker removed
[1] = target: Gal(b1-3)[Neu5Ac(a2-6)]GlcNAc(a1-4)Gal(b1-4)Glc
In short: (§1)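 Columns mapping to the same glycan were averaged after glycan names were converted to IUPAC-condensed notation. The data come from 3228 arrays in the Consortium for Functional Glycomics database, limited to those with an available protein sequence. Binding is reported as a within-array Z-score averaged across arrays of one protein sequence and across linkers.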

[2] = target: Gal(b1-3)[Neu5Ac(b2-6)]GlcNAc
In short: as §1

[3] = target: Gal(b1-4)GalNAc(a1-3)[Fuc(a1-2)]Gal(b1-4)GlcNAc
In short: as §1

[4] = target: Gal(b1-4)GalNAc(b1-3)[Fuc(a1-2)]Gal(b1-4)GlcNAc
In short: as §1

Gal(b1-4)Glc = target: Gal(b1-4)Glc
In short: as §1

Gal(b1-4)Glc6S = target: Gal(b1-4)Glc6S
In short: as §1

Gal(b1-4)GlcNAc = target: Gal(b1-4)GlcNAc
In short: as §1

[5] = target: Gal(b1-4)GlcNAc(b1-2)Man(a1-3)[Gal(b1-4)GlcNAc(b1-2)Man(a1-6)]Man(b1-4)GlcNAc(b1-4)GlcNAc
In short: as §1

[6] = target: Gal(b1-4)GlcNAc(b1-3)Gal(b1-3)GlcNAc
In short: as §1

[7] = target: Gal(b1-4)GlcNAc(b1-3)Gal(b1-4)Glc
In short: as §1

[8] = target: Gal(b1-4)GlcNAc(b1-3)Gal(b1-4)GlcNAc
In short: as §1

[9] = target: Gal(b1-4)GlcNAc(b1-3)Gal(b1-4)GlcNAc(b1-3)Gal(b1-4)GlcNAc
In short: as §1

[10] = target: Gal(b1-4)GlcNAc(b1-3)Gal(b1-4)[Fuc(a1-3)]GlcNAc(b1-3)Gal(b1-4)[Fuc(a1-3)]GlcNAc
In short: as §1

[11] = target: Gal(b1-4)GlcNAc(b1-3)GalNAc
In short: as §1

[12] = target: Gal(b1-4)GlcNAc(b1-3)[Gal(b1-4)GlcNAc(b1-6)]GalNAc
In short: as §1

[13] = target: Gal(b1-4)GlcNAc(b1-6)GalNAc
In short: as §1

[14] = target: Gal(b1-4)GlcNAc(b1-6)[Gal(b1-3)]GalNAc
In short: as §1

[15] = target: Gal(b1-4)GlcNAc(b1-6)[Gal(b1-3)]GlcNAc
In short: as §1

Gal3S(b1-3)GalNAc = target: Gal3S(b1-3)GalNAc
In short: as §1

Gal3S(b1-3)GlcNAc = target: Gal3S(b1-3)GlcNAc
In short: as §1

[16] = target: Gal3S(b1-3)[Fuc(a1-4)]GlcNAc
In short: as §1

Gal3S(b1-4)Glc = target: Gal3S(b1-4)Glc
In short: as §1

Gal3S(b1-4)Glc6S = target: Gal3S(b1-4)Glc6S
In short: as §1

Gal3S(b1-4)GlcNAc = target: Gal3S(b1-4)GlcNAc
In short: as §1

Gal3S(b1-4)GlcNAc6S = target: Gal3S(b1-4)GlcNAc6S
In short: as §1

Gal3S6S(b1-4)GlcNAc = target: Gal3S6S(b1-4)GlcNAc
In short: as §1

Gal3S6S(b1-4)GlcNAc6S = target: Gal3S6S(b1-4)GlcNAc6S
In short: as §1

Gal4S(b1-4)GlcNAc = target: Gal4S(b1-4)GlcNAc
In short: as §1

Gal4S6S(b1-4)GlcNAc = target: Gal4S6S(b1-4)GlcNAc
In short: as §1

Gal6S(b1-4)Glc = target: Gal6S(b1-4)Glc
In short: as §1

Gal6S(b1-4)Glc6S = target: Gal6S(b1-4)Glc6S
In short: as §1

Gal6S(b1-4)GlcNAc = target: Gal6S(b1-4)GlcNAc
In short: as §1

GalNAc(a1-3)Gal = target: GalNAc(a1-3)Gal
In short: as §1

GalNAc(a1-3)GalNAc = target: GalNAc(a1-3)GalNAc
In short: as §1

[17] = target: GalNAc(b1-3)Gal(a1-4)Gal(b1-4)GlcNAc
In short: as §1

GalNAc(b1-4)GlcNAc = target: GalNAc(b1-4)GlcNAc
In short: as §1

Glc(a1-4)Glc = target: Glc(a1-4)Glc
In short: as §1

Glc(a1-6)Glc(a1-6)Glc = target: Glc(a1-6)Glc(a1-6)Glc
In short: as §1

Glc(b1-4)Glc = target: Glc(b1-4)Glc
In short: as §1

Glc(b1-6)Glc = target: Glc(b1-6)Glc
In short: as §1

GlcA(b1-3)Gal = target: GlcA(b1-3)Gal
In short: as §1

GlcA(b1-6)Gal = target: GlcA(b1-6)Gal
In short: as §1

[18] = target: GlcNAc(a1-3)Gal(b1-4)GlcNAc
In short: as §1

[19] = target: GlcNAc(a1-6)Gal(b1-4)GlcNAc
In short: as §1

[20] = target: GlcNAc(b1-2)Gal(b1-3)GlcNAc
In short: as §1

B1: MLTim-4 (Mus musculus), Q6U7R4 (protein)
chain: MSKGLLLLWLVTELWWLYLTPAASEDTIIGFLGQPVTLPCHYLSWSQSRNSMCWGKGSCPNSKCNAELLRTDGTRIISRKSTKYTLLGKVQFGEVSLTISNTNRGDSGVYCCRIEVPGWFNDVKKNVRLELRRAT
[1]
  glycan array binding signal (z-score): 0.255
[2]
  glycan array binding signal (z-score): -1.01
[3]
  glycan array binding signal (z-score): -0.197
[4]
  glycan array binding signal (z-score): -0.991
Gal(b1-4)Glc
  glycan array binding signal (z-score): 1.06
Gal(b1-4)Glc6S
  glycan array binding signal (z-score): 0.287
Gal(b1-4)GlcNAc
  glycan array binding signal (z-score): -0.293
[5]
  glycan array binding signal (z-score): -0.041
[6]
  glycan array binding signal (z-score): 0.48
[7]
  glycan array binding signal (z-score): -0.566
[8]
  glycan array binding signal (z-score): -0.679
[9]
  glycan array binding signal (z-score): 0.062
[10]
  glycan array binding signal (z-score): 0.134
[11]
  glycan array binding signal (z-score): -0.179
[12]
  glycan array binding signal (z-score): -0.548
[13]
  glycan array binding signal (z-score): -0.284
[14]
  glycan array binding signal (z-score): 0.437
[15]
  glycan array binding signal (z-score): 0.243
Gal3S(b1-3)GalNAc
  glycan array binding signal (z-score): -0.428
Gal3S(b1-3)GlcNAc
  glycan array binding signal (z-score): -0.334
[16]
  glycan array binding signal (z-score): -0.574
Gal3S(b1-4)Glc
  glycan array binding signal (z-score): 0.501
Gal3S(b1-4)Glc6S
  glycan array binding signal (z-score): 0.308
Gal3S(b1-4)GlcNAc
  glycan array binding signal (z-score): -0.503
Gal3S(b1-4)GlcNAc6S
  glycan array binding signal (z-score): -0.435
Gal3S6S(b1-4)GlcNAc
  glycan array binding signal (z-score): -0.274
Gal3S6S(b1-4)GlcNAc6S
  glycan array binding signal (z-score): -0.043
Gal4S(b1-4)GlcNAc
  glycan array binding signal (z-score): -0.604
Gal4S6S(b1-4)GlcNAc
  glycan array binding signal (z-score): -0.565
Gal6S(b1-4)Glc
  glycan array binding signal (z-score): 0.602
Gal6S(b1-4)Glc6S
  glycan array binding signal (z-score): -0.372
Gal6S(b1-4)GlcNAc
  glycan array binding signal (z-score): -0.672
GalNAc(a1-3)Gal
  glycan array binding signal (z-score): 0.196
GalNAc(a1-3)GalNAc
  glycan array binding signal (z-score): -0.086
[17]
  glycan array binding signal (z-score): -0.688
GalNAc(b1-4)GlcNAc
  glycan array binding signal (z-score): -0.379
Glc(a1-4)Glc
  glycan array binding signal (z-score): 0.722
Glc(a1-6)Glc(a1-6)Glc
  glycan array binding signal (z-score): 0.744
Glc(b1-4)Glc
  glycan array binding signal (z-score): 1.36
Glc(b1-6)Glc
  glycan array binding signal (z-score): 1.42
GlcA(b1-3)Gal
  glycan array binding signal (z-score): 6.6
GlcA(b1-6)Gal
  glycan array binding signal (z-score): 2.97
[18]
  glycan array binding signal (z-score): -0.886
[19]
  glycan array binding signal (z-score): -0.414
[20]
  glycan array binding signal (z-score): -0.296
